{"source": "PubChem BioAssay AID2685", "about": "(National Center for Advancing Translational Sciences (NCATS), 2010)", "note": "Among all 320,000 compounds or so, about 2,100 (0.66%) were called active. This list was built around the results that the source calls inconclusive (neither active nor inactive); the mix of calls is not that of the screen. Calls come from the whole dose curve; as a rule, active = well fitted inhibition curve with a large enough effect in the signal ratio, with a control signal flat (not every such curve was filed as active); inconclusive = small, poorly fitted or top-dose-only effect, or effect the other way, or a change in a side signal; inactive = flat fitted curve, though single readings scatter; the % refers to the signal ratio. A potency beside an inconclusive call is a rough fit, not a confirmed value. % is set by controls: 0 for no effect and ±100 for the full control effect; potency is the fitted concentration of half-maximal effect."}
{"assay": "qHTS Assay for Lipid Storage Modulators in Drosophila S3 Cells", "details": "BODIPY lipid droplet fluorescence, 18-24 h, cells fed with added oleic acid; lipid storage change, negative = inhibition: at 46.1 µM (top of the series) unless noted", "in_short": "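Drosophila S3 cells loaded with oleic acid (400 uM, as added) and compounds at several concentrations; lipid droplets imaged by 488-nm laser-scanning cytometry, 500–530 nm intensity and object ratio to cell channel. Percent activity normalized to 20 uM Triacsin C.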"}
{"smiles": "Cc1cccc(NC(=O)CC(C)S(=O)(=O)c2ccc3c(c2)NC(=O)CO3)c1C", "note": "(centres undefined)", "lipid storage change, negative = inhibition": "inconclusive: -29%"}
{"smiles": "CCCCn1c(-c2ccncc2)nc2c1c(=O)[nH]c(=O)n2CC(C)C", "Potency": "inconclusive: 23.1 µM [activator, partial curve]"}
{"smiles": "CCCCNC(=O)N(C)c1nncnc1C(=O)NC", "Potency": "inconclusive: 0.058 µM [falling, full curve]"}
{"smiles": "Cc1ccc(C)c(S(=O)(=O)NC(CCC(N)=O)C(=O)O)c1", "note": "(centres undefined)", "Potency": "inconclusive: 0.231 µM [falling, full curve]"}
{"smiles": "Cc1cc(C)c(OCCCCCn2ccnc2)c(C)c1", "Potency": "inconclusive: 23.1 µM [falling, single point]"}
{"smiles": "COc1cc(/C=C2\\SC(=O)N(CC(=O)Nc3ccc(C)cc3)C2=O)cc(Cl)c1OCC(=O)O", "Potency": "inconclusive: 0.58 µM [activator, single point]"}
{"smiles": "CCc1ccccc1NC(=O)CSC1=C(C#N)C(c2ccc3c(c2)OCO3)C2=C(CCCC2=O)N1", "note": "(centres undefined)", "Potency": "inconclusive: 0.116 µM [activator, full curve, poor fit]"}
{"smiles": "O=C(c1ccccc1)N1CCN(c2ncnc3sc4c(c23)CCC4)CC1", "lipid storage change, negative = inhibition": "inconclusive: -37.7%"}
{"smiles": "CC(=O)Nc1cccc(OCC(=O)/C=C2\\N(C)c3ccccc3C2(C)C)c1", "lipid storage change, negative = inhibition": "inconclusive: -27.9%"}
{"smiles": "O=C1OC2(CCCCC2)OC(=O)C1=CNc1nccs1", "lipid storage change, negative = inhibition": "inconclusive: -6.55%"}
{"smiles": "CCC1(c2ccccc2)NC(=O)N(CC(=O)N(C)CC(=O)Nc2cccc(OC)c2)C1=O", "note": "(centres undefined)", "lipid storage change, negative = inhibition": "inconclusive: -1.18%"}
{"smiles": "CCN(CC)C(=O)Oc1ccc2oc(=O)cc(-c3cc4cccc(OC)c4o3)c2c1", "lipid storage change, negative = inhibition": "inconclusive: -21.8%"}
{"smiles": "CCCC(=O)NC(=S)Nc1ccc(Cl)cn1", "lipid storage change, negative = inhibition": "inconclusive: 11.8%"}
{"smiles": "Cc1cccc(C(=O)Nc2oc(-c3ccccc3)cc2C#N)c1", "lipid storage change, negative = inhibition": "inconclusive: 51.4%"}
{"smiles": "O=C(COC(=O)c1ccc(S(=O)(=O)NCc2ccco2)cc1)NCCC1=CCCCC1", "Potency": "inconclusive: 0.92 µM [falling, full curve, poor fit]"}
{"smiles": "CCCc1cc(=O)n2[nH]c(C)cc2n1", "lipid storage change, negative = inhibition": "inconclusive: 11.1%"}
{"smiles": "O=C(NNC(=O)c1ccccc1Cl)c1ccncc1", "Potency": "inconclusive: 0.82 µM [falling, full curve, poor fit]"}
{"smiles": "CC(=O)c1c(C)[nH]c(=S)c(C#N)c1-c1ccc(Cl)cc1", "Potency": "inconclusive: 13 µM [falling, partial curve, poor fit]"}
{"smiles": "O=C(COC(=O)c1ccc(F)cc1F)Nc1ccc2[nH]c(=O)[nH]c2c1", "lipid storage change, negative = inhibition": "inconclusive: -27.1%"}
{"smiles": "NS(=O)(=O)c1ccc(NC(=O)COC(=O)C2(c3ccc(F)cc3)CCCC2)cc1", "lipid storage change, negative = inhibition": "inconclusive: -35.4%"}
{"smiles": "Cc1ccc(N(CC(=O)N/N=C/c2ccc(OC3CSC3)cc2)S(=O)(=O)c2ccccc2)c(C)c1", "lipid storage change, negative = inhibition": "inconclusive: -23.5%"}
{"smiles": "OCCN1CCN(c2nc(-c3ccccc3)nc3c2oc2ccccc23)CC1", "lipid storage change, negative = inhibition": "inconclusive: 12.3% [at 9.22 µM]"}
{"smiles": "CSc1nc(C)c(CCOC(=O)c2ccccc2)c(=O)[nH]1", "lipid storage change, negative = inhibition": "inconclusive: -4.34%"}
{"smiles": "CC(=O)Nc1ccc(S(=O)(=O)Nc2ccc(-c3ccc4nnc(C)n4n3)cc2)cc1", "Potency": "inconclusive: 3.66 µM [falling, single point]"}
{"smiles": "Cc1[nH]c2ccc(C(=O)NCCCN3CCN(C)CC3)cc2c1C", "lipid storage change, negative = inhibition": "inconclusive: -15%"}
{"smiles": "Cn1c(CCN2CCCCC2)nc2cc(NS(=O)(=O)c3ccc(F)cc3)ccc21", "lipid storage change, negative = inhibition": "inconclusive: -34.3%"}
{"smiles": "O=C(COC(=O)[C@H](Cc1ccccc1)NC(=O)c1ccco1)NCc1ccccc1", "lipid storage change, negative = inhibition": "inconclusive: -27.2%"}
{"smiles": "COc1ccc(-c2onc3ccc(Cl)cc23)cc1", "outcome": "inactive [at 46.1 µM]"}
{"smiles": "CCOc1ccccc1NC(=O)c1ccc2ccccc2c1", "Potency": "inconclusive: 0.146 µM [activator, full curve, poor fit]"}
{"smiles": "O=C(c1cc(COc2ccc3ncccc3c2)on1)N1CCC(O)CC1", "lipid storage change, negative = inhibition": "inconclusive: -11.7%"}
{"smiles": "CCCn1c(=O)c(C(=O)NNC(=O)Cc2ccccc2)c(O)c2ccccc21", "lipid storage change, negative = inhibition": "inconclusive: -98.1%"}
{"smiles": "Cc1ccccc1C(=O)NC1CCN(CC(=O)N2CCCCC2C)CC1", "note": "(centres undefined)", "lipid storage change, negative = inhibition": "inconclusive: -30.8%"}
{"smiles": "Cc1ccc(C)c(COC(=O)c2cccc(S(=O)(=O)N3CCCC3)c2)c1", "lipid storage change, negative = inhibition": "inconclusive"}
{"smiles": "FC(F)(F)c1ccc(C2[C@H]3CN(Cc4cccnc4)[C@H](c4ccccc4)C34CC2(c2cccnc2)C4)cc1", "note": "(some centres undefined)", "lipid storage change, negative = inhibition": "inconclusive: -15.7%"}
{"smiles": "Cc1nn(-c2ccccc2)c2[nH]c(=O)c(CNCCN3CCOCC3)cc12", "Potency": "active: 23.1 µM"}
{"smiles": "COc1ccccc1C(=O)NCCC(=O)Nc1ccc(S(=O)(=O)N2C(C)CCCC2C)cc1", "note": "(centres undefined)", "Potency": "inconclusive: 5.8 µM [falling, full curve]"}
{"smiles": "CCOC(=O)c1sc2ncn(C(CC)C(=O)OCC)c(=O)c2c1C", "note": "(centres undefined)", "Potency": "inconclusive: 20.6 µM [activator, single point]"}
{"smiles": "Cn1c(C(=O)N2CCN(c3ccccn3)CC2)cc2ccccc21", "Potency": "inconclusive: 29.1 µM [falling, single point]"}
{"smiles": "O=C(CN1C(=O)NC(c2ccccc2)(c2ccccc2)C1=O)NCc1ccccc1", "lipid storage change, negative = inhibition": "inconclusive: -37.3%"}
{"smiles": "Cc1cccc2sc(NC(=O)CSCc3ccccc3)nc12", "Potency": "inconclusive: 0.92 µM [falling, full curve, poor fit]"}
{"smiles": "COc1ccc(S(=O)(=O)CC(=O)c2cc3cc(Br)ccc3oc2=O)cc1", "Potency": "inconclusive: 6.51 µM [falling, single point]"}
{"smiles": "CNC(=O)c1ccsc1NC(=O)c1ccc(S(=O)(=O)N2CCc3ccccc32)cc1", "Potency": "inconclusive: 3.26 µM [activator, partial curve]"}
{"smiles": "CCOC(=O)c1c(S(=O)(=O)NCc2cccs2)c(C)n(C)c1C", "Potency": "inconclusive: 29.1 µM [falling, single point]"}
{"smiles": "CC(C)CNC(=O)COc1cccc(C(=O)NCc2ccccc2)c1", "Potency": "inconclusive: 6.51 µM [activator, single point]"}
{"smiles": "CCOc1ccc(NC(=O)CCCNC(=O)Cn2cnc3sc(C)c(C)c3c2=O)cc1", "lipid storage change, negative = inhibition": "inconclusive: -4.39%"}
{"smiles": "CCCc1cc(=O)[nH]c(SCC(=O)N(CC)c2c(N)n(Cc3ccccc3)c(=O)[nH]c2=O)n1", "lipid storage change, negative = inhibition": "inconclusive"}
{"smiles": "Cc1c(C)c2cc(Cl)c(O)c(CN(C)C)c2oc1=O", "lipid storage change, negative = inhibition": "inconclusive: -0.0602%"}
{"smiles": "CC(NC(=O)C(C)N1CCN(Cc2ccccc2)CC1)c1ccc(F)cc1", "note": "(centres undefined)", "Potency": "inconclusive: 6.51 µM [activator, single point]"}
{"smiles": "CSc1nc(-c2ccc(C)cc2)nc(C(Cl)Cl)n1", "lipid storage change, negative = inhibition": "inactive: 7.05%"}
{"smiles": "O=C(CCc1n[nH]c(=O)[nH]c1=O)Nc1cccc([N+](=O)[O-])c1", "lipid storage change, negative = inhibition": "inconclusive: -3.67%"}
{"smiles": "Cc1nn(-c2ccccc2)c(C)c1NC(=O)COC(=O)/C=C/c1ccccc1", "Potency": "inconclusive: 7.31 µM [activator, partial curve, poor fit]"}
{"smiles": "CS(=O)(=O)c1ccc(NC(=O)C2CCCN(C(=O)c3ccc(Cl)cc3)C2)cc1", "note": "(centres undefined)", "lipid storage change, negative = inhibition": "inconclusive: 14.3%"}
{"smiles": "CC1CCC2(CC1)NC(=O)N(CC(=O)c1ccc(Cl)s1)C2=O", "note": "(centres undefined)", "Potency": "inconclusive: 4.11 µM [activator, full curve, poor fit]"}
{"smiles": "CCCCC(Sc1nc(N)c(NC(=O)c2ccc(OC)cc2)c(=O)[nH]1)C(=O)O", "note": "(centres undefined)", "lipid storage change, negative = inhibition": "inconclusive: 11.9%"}
{"smiles": "COc1ccc2oc(C(=O)NC(C)(C)C)c(C)c2c1", "lipid storage change, negative = inhibition": "inconclusive: 10.4%"}
{"smiles": "COc1ccccc1CNC(=O)C1CCN(S(=O)(=O)c2ccc(N3CCCC3=O)cc2)CC1", "outcome": "inactive [at 46.1 µM]"}
{"smiles": "O=C(Nc1ccc2nc(N3CCOCC3)sc2c1)c1ccc(F)cc1", "Potency": "inconclusive: 0.82 µM [activator, full curve, poor fit]"}
{"smiles": "CCOc1ccc2ccccc2c1/C=N/NC(=O)CNC(=O)C(c1ccccc1)c1ccccc1", "Potency": "inconclusive: 16.4 µM [falling, single point]"}
{"smiles": "O=C(COC(=O)CCC(=O)c1ccc(Cl)cc1)NC1CC1", "lipid storage change, negative = inhibition": "inconclusive: 44.3%"}
{"smiles": "CN1CCCN(S(=O)(=O)c2ccccc2)c2nc3ccccc3nc21", "lipid storage change, negative = inhibition": "inconclusive: 22.8%"}
{"smiles": "N#CC[C@H](Cc1ccccc1)N1CC[C@@H](O)CCC1=O", "Potency": "inconclusive: 0.0517 µM [activator, full curve, poor fit]"}
{"smiles": "Cc1[nH]c2ccccc2c1SCc1n[nH]c(=S)n1C", "lipid storage change, negative = inhibition": "inconclusive: 21.2%"}
{"smiles": "C[C@@H](NC(=O)c1nc[nH]c1C(=O)N[C@H](C)c1ccccc1)c1ccccc1", "lipid storage change, negative = inhibition": "inconclusive: -7.31%"}
{"smiles": "CCOc1cccc(/C(O)=C2/C(=O)C(=O)N(CCOC)C2c2ccco2)c1", "note": "(centres undefined)", "outcome": "inactive [at 46.1 µM]"}
{"smiles": "CC1CCCC(C)N1C(=O)CCN1C(=O)C2C3C=CC(C3)C2C1=O", "note": "(centres undefined)", "lipid storage change, negative = inhibition": "inconclusive: 34.3%"}
{"smiles": "CN(C)c1nc2n(c(=O)n1)CCS2", "Potency": "inconclusive: 0.461 µM [falling, full curve, poor fit]"}
{"smiles": "CS(=O)(=O)c1ccccc1C(=O)N1CCN(S(=O)(=O)c2ccc(C3CCCCC3)cc2)CC1", "lipid storage change, negative = inhibition": "inconclusive: -67.4%"}
{"smiles": "C/C(=N\\NC(N)=S)c1ccc(-n2ccnc2)cc1", "lipid storage change, negative = inhibition": "inconclusive: 23.2%"}
{"smiles": "CCn1nc(C)c(C2C(C#N)=C(N)OC3=C2C(=O)CC(C)(C)C3)c1C", "note": "(centres undefined)", "lipid storage change, negative = inhibition": "inconclusive: -6.61%"}
{"smiles": "CCC1CCCCN1CC(=O)c1c(C)[nH]c2cc(C)ccc12", "note": "(centres undefined)", "lipid storage change, negative = inhibition": "inconclusive: 7.2%"}
{"smiles": "CC(C)Oc1cccc(C(=O)N/N=C/c2coc3ccccc3c2=O)c1", "lipid storage change, negative = inhibition": "inconclusive: 3.76%"}
{"smiles": "CC(C)=CC1C(C(=O)NCCOc2ccccc2)C1(C)C", "note": "(centres undefined)", "Potency": "inconclusive: 29.1 µM [activator, single point]"}
{"smiles": "Cc1ccc(OCCN2CCN(C(=O)CCC(=O)Nc3nnc(C)s3)CC2)cc1", "lipid storage change, negative = inhibition": "inconclusive: 4.39%"}
{"smiles": "c1coc(CN2CNc3nc4ccccc4n3C2)c1", "Potency": "inconclusive: 0.517 µM [activator, single point]"}
